The inconclusive results got no clear call from the source; some entries with a clear call stand among them for comparison. Potencies beside an inconclusive call are fits to weak or partial responses and may not hold up. Active and inactive are the calls of the source. Calls follow the shape of the dose curve; as a rule, active = well fitted inhibition curve with a large enough effect; inconclusive = small, poorly fitted or top-dose-only effect; inactive = flat fitted curve, though single readings scatter.
What follows are molecules tested against Ferritin light chain (Equus caballus) (UniProt P02791) (assay: Confirmation Assay for Identification of Novel General Anesthetics). Settings: apoferritin 1-aminoanthracene fluorescence displacement.
Outline: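 Horse apoferritin (10 uM) pre-loaded with 1-AMA (50% saturated, PBS) exposed to compounds 10 min at room temperature; loss of 1-AMA fluorescence (380/535 nm) scaled between free and bound ligand, curves fitted with Hill equation.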
Also: nearly all actives have a fitted effect of over 40% in size.
Potency is read from the fitted curve at half-maximal effect.

Amino acid sequences for entries named in this document (tags omitted). Residues count along the entry.
UniProt P02791, 2-175 limits assumed: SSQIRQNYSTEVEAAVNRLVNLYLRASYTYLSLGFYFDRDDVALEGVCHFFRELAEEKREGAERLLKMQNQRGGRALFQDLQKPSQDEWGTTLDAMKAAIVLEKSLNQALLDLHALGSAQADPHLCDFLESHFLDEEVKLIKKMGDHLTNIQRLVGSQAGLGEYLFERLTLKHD

Row | Structure (SMILES) | Potency
1 | O=c1c2c(-c3cccs3)csc2ncn1-n1cccc1 | inconclusive: 20 µM [inhibitor, partial curve]
2 | O=C(Cc1ccccc1)NC(=S)Nc1cccc(C(F)(F)F)c1 | inconclusive: 6.31 µM [inhibitor, full curve]
3 | CN(C)CCNC(=O)c1ccc2nc(CCc3ccccc3)oc2c1 | inconclusive: 39.8 µM [inhibitor, partial curve]
4 | Clc1ccc(CSc2ncn[nH]2)cc1 | inconclusive: 31.6 µM [inhibitor, partial curve]
5 | Cc1cc(=O)n(Cc2ccc(OC(C)C)cc2)c(=S)[nH]1 | inconclusive: 28.2 µM [inhibitor, partial curve]
6 | Clc1ccccc1CSc1nnc(-c2ccncc2)o1 | inconclusive: 35.5 µM [inhibitor, partial curve]
7 | Nc1ccc2nc(SCc3cccc(F)c3)sc2c1 | active: 28.2 µM
8 | Cc1cccc(Cn2ncc(Cl)c(Cl)c2=O)c1 | inconclusive: 44.7 µM [inhibitor, partial curve]
9 | O=C1CSC(c2ccccc2F)N1c1cc(Cl)ccc1O (configuration not stated) | inconclusive: 35.5 µM [inhibitor, partial curve]
10 | Cc1ccccc1C(=O)Oc1cccc2c(O)cccc12 | inconclusive: 31.6 µM [inhibitor, partial curve]
11 | CC1CCCCN1S(=O)(=O)c1ccc(NC(=O)c2ccco2)cc1 (configuration not stated) | inconclusive: 39.8 µM [inhibitor, partial curve]
12 | O=C(CCc1ccccc1)NC(=S)Nc1ccccc1[N+](=O)[O-] | active: 15.8 µM

— PubChem BioAssay AID489008 (National Center for Advancing Translational Sciences (NCATS), 2010)
